In US11884647B2, “Compounds and methods for targeting pathogenic blood vessels” (THE REGENTS OF THE UNIVERSITY OF CALIFORNIA, priority 2019, dated 2024):
At least one read-out could not be matched to a standard name with certainty.

Each molecule was assayed on tumor endothelial cells (LL/2 lung cancer tumor) (assay: Lung LL2 ex vivo model of tumor angiogenesis). Conditions: Conc. 10 μm.
Assay type: cell-based, mouse
Experimental: This example describes a procedure to prepare a primary tumor angiogenesis model for assessing the efficacy of anti-cancer candidate agents.
1. The day before the experiment, spray all necessary tools with 70% ethanol and sterilize them under UV light overnight, including blade, dissecting and micro-dissecting scissors and […]. Place 24-well dishes at 4° C. to pre-chill plates and thaw Matrigel 24 hours before tumor dissection.
2. Spray 70% ethanol on working bench. Prepare two sterile petri dishes with 10 mL sterile PBS. Steps 3 and 4 are for mouse tumor models. For fresh human tumor, directly go to step 5.
3. Euthanize the tumor-bearing mice. Spray 70% ethanol on the mouse and remove the tumor using sterilized dissecting tools (avoid the fur). Rinse the tumor in petri dish with sterile PBS to remove ethanol and fur. Transfer the tumor to a new petri dish with PBS for dissection. Place the dish on ice.
4. Using pre-chilled sterile pipet tips to seed regular Matrigel in 24 well plates on ice. Matrigel (30 μL) is dropped in the middle of each well without touching the edge of the well (avoid introducing bubbles if possible).
5. Cut the tumor in halves using the sterile blade. Identify and isolate healthy tumor tissue that is not necrotic and is within the tumor capsule. Cut the healthy tumor tissue into small pieces. For instance, a suitable size for the tumor tissue is 0.5 mm (H)×0.5 mm (L)×0.3 mm (D) with a total volume of 0.075 mm^3.
6. Gently transfer and embed each tumor piece in the Matrigel drop in the 24-well plate. Place the embedded piece in the bottom and middle of each Matrigel drop. Keep the plate on ice all the time.
7. After seeding the tumor pieces, plates are incubated in a 37° C. cell culture incubator without medium for 10 minutes in order for the Matrigel to solidify.
8. Endothelial Growth Medium (0.5 mL) is added to each well and incubated at 37° C. with 5% CO2. Wait until the new endothelial cells have grown out of the tumor or are larger than 3 mm in diameter until treatment. This usually takes 4 days for the LL2 Lewis lung cancer model and 7 days for the CT26 colon cancer model. For human tumor models, the growth time is typically 2-3 weeks, depending on the tumor type. Media is changed every 4 days during prolonged culture. Typically, when the tumor tissue grows to 2 mm in diameter, it is good for drug testing. A size of about 3 mm in diameter can make visualization easier.
9. When the assay is ready to be analyzed for cell death (e.g., 48 hours after drug addition), prepare the dye mixture by mixing 6 μL of green dye to stain live cells (5 mg/mL Fluorescein diacetate or FDA in DMSO) with 30 μL of red dye (2.5 mg/mL Propidium iodide or PI in PBS) to stain dead cells in an Eppendorf tube. The FDA dye needs to be stored frozen in a −20° C. freezer because it has a labile ester bond.
10. Add 1 μL of the dye mixture to each well of the 24-well dish. It is usually performed one 24-well dish at a time given the amount of time needed to take pictures (the green dye is not as stable in the cells in the long term).
11. Gently rock the dish a few times to mix the dye with the media in the wells and incubate the dish at 37° C. for 10 min (too long incubation can make the green signal too intense).
12. Wash each well with 0.5 mL of sterile PBS and then add 0.5 mL of phenol red free SFM to each well. Alternatively 0.5 mL of regular Endothelial Cell Growth Media can be added to each well if this well needs to be continuously maintained after the experiment.
13. Look through all wells on an inverted microscope using the 2× objective lens to observe morphological changes.
14. Taking pictures in the red and green channels would allow not only the recording of the result but also more accurate quantitation of the result. To take pictures for all the wells, first pick a well that has robust red and green signals. […]
With CCOC(=O)c1ccc2ncc(S(=O)(=O)c3ccc(OC)cc3)c(N3CCCN(CCN4CCCCC4)CC3)c2c1 [compound 179, ethyl 3-((4-methoxyphenyl)sulfonyl)-4-(4-(2-(piperidin-1-yl)ethyl)-1,4-diazepan-1-yl)quinoline-6-carboxylate] the “48 hrs (morphology observations after 48 hours)” value was “*** (100% of endothelial cells vesicularize in cell shape)”. With CCOC(=O)c1ccc2ncc(S(=O)(=O)c3ccc(OC)cc3)c(-n3cnnn3)c2c1 [compound 185, ethyl 3-((4-methoxyphenyl)sulfonyl)-4-(1H-tetrazol-1-yl)quinoline-6-carboxylate] the “48 hrs (morphology observations after 48 hours)” value was “* (50% or less of cells vesicularize in cell shape)”. For CCCCCCCCCCOc1ccc(S(=O)(=O)c2cnc3ccc([S+](C)[O-])cc3c2N2CCC(N3CCC(N4CCN(C)CC4)CC3)CC2)cc1 (stereo not shown) [compound 285, 3-((4-(decyloxy)phenyl)sulfonyl)-4-(4-(4-methylpiperazin-1-yl)-[1,4′-bipiperidin]-1′-yl)-6-(methylsulfinyl)quinoline], the “48 hrs (morphology observations after 48 hours)” value was “*** (100% of endothelial cells vesicularize in cell shape)”. For CCCCCCCCCCOc1ccc(S(=O)(=O)c2cnc3ccc([S+](C)[O-])cc3c2N2CCC(N3CCN(C)CC3)CC2)cc1 (stereo not shown) [compound 264, 3-((4-(decyloxy)phenyl)sulfonyl)-4-(4-(4-methylpiperazin-1-yl)piperidin-1-yl)-6-(methylsulfinyl)quinoline], the “48 hrs (morphology observations after 48 hours)” value was “* (50% or less of cells vesicularize in cell shape)”.

Same assay, conditions: Conc. 20 μm
CCCCCCCCCCCCOc1ccc(S(=O)(=O)c2cnc3ccc([S+](C)[O-])cc3c2N2CCC(N3CCC(N4CCCC(O)C4)CC3)CC2)cc1F (stereo not shown) [compound 364, 1″-(3-((4-(dodecyloxy)-3-fluorophenyl)sulfonyl)-6-(methylsulfinyl)quinolin-4-yl)-[1,4′:1′,4″- terpiperidin]-3-ol] was tested, and the “48 hrs (morphology observations after 48 hours)” value was “*** (100% of endothelial cells vesicularize in cell shape)”. In the case of CCCCCCCCCCCCCCOc1ccc(S(=O)(=O)c2cnc3ccc([S+](C)[O-])cc3c2N2CCC(N3CCN(CCO)CC3)CC2)cc1 (stereo not shown) [compound 344, 2-(4-(1-(6-(methylsulfinyl)-3-((4-(tetradecyloxy)phenyl)sulfonyl)quinolin-4-yl)piperidin-4-yl)piperazin-1-yl)ethan-1-ol], the “48 hrs (morphology observations after 48 hours)” value was “* (50% or less of cells vesicularize in cell shape)”. With CCOC(=O)c1ccc2ncc(S(=O)(=O)c3ccc(OC)cc3)c(-n3ccnc3)c2c1 [compound 141, ethyl 4-(1H-imidazol-1-yl)-3-((4-methoxyphenyl)sulfonyl)quinoline-6-carboxylate] the “48 hrs (morphology observations after 48 hours)” value was “**** (100% of endothelial cells vesicularize in cell shape and look flattened in morphology (indicating disintegration of the cell body))”. With CCCCCCCCCCCCOc1ccc(S(=O)(=O)c2cnc3ccc([S+](C)[O-])cc3c2N2CCC(N3CCC(N4CCCCC4)CC3)CC2)cc1 (stereo not shown) [compound 342, 4-([1,4′:1′,4″-terpiperidin]-1″-yl)-3-((4-(dodecyloxy)phenyl)sulfonyl)-6-(methylsulfinyl)quinoline] the “48 hrs (morphology observations after 48 hours)” value was “*** (100% of endothelial cells vesicularize in cell shape)”. For CCCCCCCCCCCCCCOc1ccc(S(=O)(=O)c2cnc3ccc([S+](C)[O-])cc3c2N2CCC(N3CCC(N4CCN(C)CC4)CC3)CC2)cc1F (stereo not shown) [compound 371, 3-((3-fluoro-4-(tetradecyloxy)phenyl)sulfonyl)-4-(4-(4-methylpiperazin-1-yl)-[1,4′-bipiperidin]-1′-yl)-6-(methylsulfinyl)quinoline], the “48 hrs (morphology observations after 48 hours)” value was “*** (100% of endothelial cells vesicularize in cell shape)”. For CCCCCCCCCCCCOc1ccc(S(=O)(=O)c2cnc3ccc([S+](C)[O-])cc3c2N2CCC(N3CCC(N4CCN(C)CC4)CC3)CC2)cc1F (stereo not shown) [compound 370, 3-((4-(dodecyloxy)-3-fluorophenyl)sulfonyl)-4-(4-(4-methylpiperazin-1-yl)-[1,4′-bipiperidin]-1′-yl)-6-(methylsulfinyl)quinoline], the “48 hrs (morphology observations after 48 hours)” value was “** (more than 50% but less than 100% of endothelial cells vesicularize in cell shape)”. CCCCCCCCCCCCCCOc1ccc(S(=O)(=O)c2cnc3ccc([S+](C)[O-])cc3c2N2CCC(N3CCC(N4CCC(O)CC4)CC3)CC2)cc1F (stereo not shown) [compound 373, 1″-(3-((3-fluoro-4-(tetradecyloxy)phenyl)sulfonyl)-6-(methylsulfinyl)quinolin-4-yl)-[1,4′:1′,4″- terpiperidin]-4-ol] was tested, and the “48 hrs (morphology observations after 48 hours)” value was “* (50% or less of cells vesicularize in cell shape)”. With CCCCCCCOc1ccc(S(=O)(=O)c2cnc3ccc(SC)cc3c2N2CCC(N3CCCC(O)C3)CC2)cc1 (stereo not shown) [compound 247, 1′-(3-((4-(heptyloxy)phenyl)sulfonyl)-6-(methylthio)quinolin-4-yl)-[1,4′-bipiperidin]-3-ol] the “48 hrs (morphology observations after 48 hours)” value was “*** (100% of endothelial cells vesicularize in cell shape)”. For CCOC(=O)c1ccc2ncc(S(=O)(=O)c3ccc(OC)cc3)c(-n3nnc4ccccc43)c2c1 [compound 142, ethyl 4-(1H-benzo[d][1,2,3]triazol-1-yl)-3-((4-methoxyphenyl)sulfonyl)quinoline-6-carboxylate], the “48 hrs (morphology observations after 48 hours)” value was “**** (100% of endothelial cells vesicularize in cell shape and look flattened in morphology (indicating disintegration of the cell body))”. CCCCCCCCCCCCCCOc1ccc(S(=O)(=O)c2cnc3ccc([S+](C)[O-])cc3c2N2CCC(N3CCC(N4CCN(CCO)CC4)CC3)CC2)cc1 (stereo not shown) [compound 345, 2-(4-(1′-(6-(methylsulfinyl)-3-((4-(tetradecyloxy)phenyl)sulfonyl)quinolin-4-yl)-[1,4′-bipiperidin]-4-yl)piperazin-1-yl)ethan-1-ol] was tested, and the “48 hrs (morphology observations after 48 hours)” value was “*** (100% of endothelial cells vesicularize in cell shape)”. In the case of CCCCCCCOc1ccc(S(=O)(=O)c2cnc3ccc(SC)cc3c2N2CCN(CCN3CCCCC3)CC2)cc1 [compound 281, 3-((4-(heptyloxy)phenyl)sulfonyl)-6-(methylthio)-4-(4-(2-(piperidin-1-yl)ethyl)piperazin-1-yl)quinoline], the “48 hrs (morphology observations after 48 hours)” value was “** (more than 50% but less than 100% of endothelial cells vesicularize in cell shape)”. For CCCCCCCCCCCCOc1ccc(S(=O)(=O)c2cnc3ccc([S+](C)[O-])cc3c2N2CCC(N3CCC(N4CCN(CCO)CC4)CC3)CC2)cc1 (stereo not shown) [compound 340, 2-(4-(1′-(3-((4-(dodecyloxy)phenyl)sulfonyl)-6-(methylsulfinyl)quinolin-4-yl)-[1,4′-bipiperidin]-4-yl)piperazin-1-yl)ethan-1-ol], the “48 hrs (morphology observations after 48 hours)” value was “*** (100% of endothelial cells vesicularize in cell shape)”.

Same assay, conditions: Conc. 40 μm
For CCCCOc1ccc(S(=O)(=O)c2cnc3ccc(C(=O)OCC)cc3c2N2CCCN(CCN3CCCCC3)CC2)cc1 [compound 181, ethyl 3-((4-butoxyphenyl)sulfonyl)-4-(4-(2-(piperidin-1-yl)ethyl)-1,4-diazepan-1-yl)quinoline-6-carboxylate], the “48 hrs (morphology observations after 48 hours)” value was “**** (100% of endothelial cells vesicularize in cell shape and look flattened in morphology (indicating disintegration of the cell body))”. In the case of CCCCOc1ccc(S(=O)(=O)c2cnc3ccc(C(=O)OCC)cc3c2N2CCCN(CCN3CCCC3)CC2)cc1 [compound 182, ethyl 3-((4-butoxyphenyl)sulfonyl)-4-(4-(2-(pyrrolidin-1-yl)ethyl)-1,4-diazepan-1-yl)quinoline-6-carboxylate], the “48 hrs (morphology observations after 48 hours)” value was “**** (100% of endothelial cells vesicularize in cell shape and look flattened in morphology (indicating disintegration of the cell body))”. CCCCOc1ccc(S(=O)(=O)c2cnc3ccc(SC)cc3c2N2CCCN(CCO)CC2)cc1 [compound 351, 2-(4-(3-((4-butoxyphenyl)sulfonyl)-6-(methylthio)quinolin-4-yl)-1,4-diazepan-1-yl)ethan-1-ol] was tested, and the “48 hrs (morphology observations after 48 hours)” value was “*** (100% of endothelial cells vesicularize in cell shape)”.
